This is one part of the list.
Assays:
Experiment in all cases: log2 fold change, soluble protein after heating vs DMSO (PISA); higher = thermal stabilisation; K562 lysate, 10 uM; active = over 0.2 and 3.5 SD of the protein, either way, in both replicates (recomputed)
[1] = compound: C#Cc1cccc(Nc2ncnc3cc(OCCOC)c(OCCOC)cc23)c1 [erlotinib]
Outline: (§1)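 Thermal stability, expressed as log-two fold change relative to solvent controls, is given from duplicates. Crude K562 extract in PBS pH 7.4 with 1 mM MgCl2, at 1 mg/mL protein, was treated with 10 μM compound for 30 min and heated in aliquots for 3 min across 48°C-58°C. After pooling, adjustment to 0.5% NP-40 at 4°C and centrifugation at 21,000xg for 90 min, supernatant protein was measured by TMTpro 16plex LC-MS/MS with channel sums equalised.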

Amino acid sequences for entries named in this document (tags omitted). A change or cut given only in a name is not applied to a line headed by its entry.
UniProt Q92930: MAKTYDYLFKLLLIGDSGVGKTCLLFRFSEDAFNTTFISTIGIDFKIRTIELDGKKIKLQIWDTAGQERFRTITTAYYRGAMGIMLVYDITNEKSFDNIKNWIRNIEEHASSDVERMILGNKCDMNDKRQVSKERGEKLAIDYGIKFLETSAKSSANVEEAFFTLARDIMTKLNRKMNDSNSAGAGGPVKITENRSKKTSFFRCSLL
UniProt Q06609, whole entry, looked up: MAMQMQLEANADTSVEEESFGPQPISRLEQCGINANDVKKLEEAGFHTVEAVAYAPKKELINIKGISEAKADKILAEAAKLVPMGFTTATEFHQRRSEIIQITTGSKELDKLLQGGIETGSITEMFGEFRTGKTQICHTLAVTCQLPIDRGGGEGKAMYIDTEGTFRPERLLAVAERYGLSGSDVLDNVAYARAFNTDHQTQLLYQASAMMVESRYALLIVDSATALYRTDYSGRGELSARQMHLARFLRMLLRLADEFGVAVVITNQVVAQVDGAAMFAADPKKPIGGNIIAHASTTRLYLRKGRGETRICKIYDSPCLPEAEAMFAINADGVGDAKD
UniProt P54725: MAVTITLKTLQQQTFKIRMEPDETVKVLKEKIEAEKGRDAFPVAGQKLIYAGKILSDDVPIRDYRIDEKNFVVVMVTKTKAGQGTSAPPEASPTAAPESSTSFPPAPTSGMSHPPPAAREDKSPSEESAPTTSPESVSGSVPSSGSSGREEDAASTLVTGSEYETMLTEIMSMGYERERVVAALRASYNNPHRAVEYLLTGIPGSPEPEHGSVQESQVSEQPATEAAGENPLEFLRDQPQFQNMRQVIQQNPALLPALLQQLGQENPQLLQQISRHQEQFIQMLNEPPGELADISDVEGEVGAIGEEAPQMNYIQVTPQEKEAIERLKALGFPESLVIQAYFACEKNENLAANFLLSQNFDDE
UniProt Q9H0R6: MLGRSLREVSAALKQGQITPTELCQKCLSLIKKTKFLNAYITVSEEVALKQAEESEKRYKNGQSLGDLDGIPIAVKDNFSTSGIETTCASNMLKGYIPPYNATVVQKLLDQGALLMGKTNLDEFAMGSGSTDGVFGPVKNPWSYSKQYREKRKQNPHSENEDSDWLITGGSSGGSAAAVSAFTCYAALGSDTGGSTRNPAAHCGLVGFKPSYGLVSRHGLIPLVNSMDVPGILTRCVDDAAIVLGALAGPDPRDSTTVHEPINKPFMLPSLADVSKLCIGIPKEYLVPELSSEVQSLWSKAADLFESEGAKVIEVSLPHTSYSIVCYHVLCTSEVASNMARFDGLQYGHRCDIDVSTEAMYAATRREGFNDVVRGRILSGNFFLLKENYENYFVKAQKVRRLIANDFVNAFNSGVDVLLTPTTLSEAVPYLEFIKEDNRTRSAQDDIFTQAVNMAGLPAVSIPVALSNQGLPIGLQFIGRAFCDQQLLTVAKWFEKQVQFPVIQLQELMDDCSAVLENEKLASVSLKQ
UniProt O15315: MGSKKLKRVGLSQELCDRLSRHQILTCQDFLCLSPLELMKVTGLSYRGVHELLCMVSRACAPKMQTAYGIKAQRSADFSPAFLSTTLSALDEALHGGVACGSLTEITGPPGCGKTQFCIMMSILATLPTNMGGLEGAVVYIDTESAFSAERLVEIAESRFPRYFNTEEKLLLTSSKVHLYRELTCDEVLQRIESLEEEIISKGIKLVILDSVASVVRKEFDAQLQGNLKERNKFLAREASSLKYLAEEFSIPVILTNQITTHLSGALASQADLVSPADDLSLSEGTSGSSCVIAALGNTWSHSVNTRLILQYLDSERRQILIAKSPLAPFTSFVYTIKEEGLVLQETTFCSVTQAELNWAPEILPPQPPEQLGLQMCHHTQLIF
UniProt Q15032: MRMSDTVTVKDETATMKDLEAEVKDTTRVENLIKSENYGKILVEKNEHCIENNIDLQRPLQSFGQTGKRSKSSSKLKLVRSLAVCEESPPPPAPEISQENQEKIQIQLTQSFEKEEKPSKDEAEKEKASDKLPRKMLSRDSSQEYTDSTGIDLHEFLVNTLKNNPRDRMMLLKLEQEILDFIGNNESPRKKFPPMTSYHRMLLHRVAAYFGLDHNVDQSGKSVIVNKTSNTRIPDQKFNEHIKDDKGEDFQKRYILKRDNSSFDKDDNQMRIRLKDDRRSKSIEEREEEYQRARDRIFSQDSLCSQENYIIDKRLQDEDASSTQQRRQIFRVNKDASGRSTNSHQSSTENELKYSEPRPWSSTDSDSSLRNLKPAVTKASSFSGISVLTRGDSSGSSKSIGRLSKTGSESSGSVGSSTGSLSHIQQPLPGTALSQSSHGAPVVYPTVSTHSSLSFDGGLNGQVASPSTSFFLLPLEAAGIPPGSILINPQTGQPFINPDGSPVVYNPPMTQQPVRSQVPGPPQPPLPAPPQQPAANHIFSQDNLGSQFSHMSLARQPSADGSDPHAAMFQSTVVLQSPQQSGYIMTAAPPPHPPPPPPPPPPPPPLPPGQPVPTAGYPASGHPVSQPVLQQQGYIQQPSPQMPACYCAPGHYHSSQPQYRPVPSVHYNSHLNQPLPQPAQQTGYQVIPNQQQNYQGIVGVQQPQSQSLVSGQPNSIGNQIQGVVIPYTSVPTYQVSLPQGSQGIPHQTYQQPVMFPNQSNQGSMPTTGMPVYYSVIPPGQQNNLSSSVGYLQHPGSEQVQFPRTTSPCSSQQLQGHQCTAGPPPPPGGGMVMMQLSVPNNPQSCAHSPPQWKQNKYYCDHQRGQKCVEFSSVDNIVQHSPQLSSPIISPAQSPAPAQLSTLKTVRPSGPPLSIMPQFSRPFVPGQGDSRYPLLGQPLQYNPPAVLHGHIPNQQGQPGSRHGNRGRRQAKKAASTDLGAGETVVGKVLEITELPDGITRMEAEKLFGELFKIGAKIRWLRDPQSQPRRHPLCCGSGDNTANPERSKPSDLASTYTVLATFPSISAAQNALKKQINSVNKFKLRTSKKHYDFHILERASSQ
UniProt Q86X10: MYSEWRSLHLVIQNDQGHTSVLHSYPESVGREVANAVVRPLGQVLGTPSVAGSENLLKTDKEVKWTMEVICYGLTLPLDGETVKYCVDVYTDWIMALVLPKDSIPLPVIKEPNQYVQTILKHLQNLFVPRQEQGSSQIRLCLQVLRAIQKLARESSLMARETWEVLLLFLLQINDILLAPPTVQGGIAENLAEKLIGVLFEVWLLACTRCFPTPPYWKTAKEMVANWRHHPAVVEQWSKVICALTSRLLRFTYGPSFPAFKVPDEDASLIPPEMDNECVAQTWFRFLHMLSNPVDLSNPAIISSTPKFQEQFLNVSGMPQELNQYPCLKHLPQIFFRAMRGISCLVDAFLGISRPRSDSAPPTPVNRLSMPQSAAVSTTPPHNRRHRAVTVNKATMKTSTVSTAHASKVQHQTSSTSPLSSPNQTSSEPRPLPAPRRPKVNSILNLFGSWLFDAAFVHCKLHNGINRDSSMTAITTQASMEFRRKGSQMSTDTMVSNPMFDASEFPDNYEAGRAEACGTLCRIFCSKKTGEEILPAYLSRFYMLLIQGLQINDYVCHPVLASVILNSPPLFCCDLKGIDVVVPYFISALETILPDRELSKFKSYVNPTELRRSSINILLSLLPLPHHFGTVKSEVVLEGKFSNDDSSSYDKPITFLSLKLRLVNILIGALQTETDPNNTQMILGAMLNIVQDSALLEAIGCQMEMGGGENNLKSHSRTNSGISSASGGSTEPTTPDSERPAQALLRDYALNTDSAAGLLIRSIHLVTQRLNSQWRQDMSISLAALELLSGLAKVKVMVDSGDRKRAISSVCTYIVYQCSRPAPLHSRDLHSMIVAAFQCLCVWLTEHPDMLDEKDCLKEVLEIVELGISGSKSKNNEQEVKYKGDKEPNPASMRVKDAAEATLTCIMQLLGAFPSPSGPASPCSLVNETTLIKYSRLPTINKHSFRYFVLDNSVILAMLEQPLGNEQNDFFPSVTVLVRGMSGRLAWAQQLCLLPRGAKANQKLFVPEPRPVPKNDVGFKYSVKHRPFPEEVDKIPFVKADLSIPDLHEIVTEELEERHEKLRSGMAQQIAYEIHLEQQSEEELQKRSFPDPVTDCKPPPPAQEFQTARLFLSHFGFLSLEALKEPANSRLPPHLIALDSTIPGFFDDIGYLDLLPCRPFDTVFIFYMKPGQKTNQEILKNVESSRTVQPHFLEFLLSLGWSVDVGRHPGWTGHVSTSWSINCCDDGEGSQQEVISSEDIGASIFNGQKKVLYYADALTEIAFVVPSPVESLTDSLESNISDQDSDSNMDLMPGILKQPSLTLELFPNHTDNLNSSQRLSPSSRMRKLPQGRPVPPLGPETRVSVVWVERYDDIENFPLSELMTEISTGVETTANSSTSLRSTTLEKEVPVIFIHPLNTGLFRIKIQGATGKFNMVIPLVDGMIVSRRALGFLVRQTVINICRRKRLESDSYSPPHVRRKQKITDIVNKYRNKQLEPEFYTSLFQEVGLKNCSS
UniProt Q53H96: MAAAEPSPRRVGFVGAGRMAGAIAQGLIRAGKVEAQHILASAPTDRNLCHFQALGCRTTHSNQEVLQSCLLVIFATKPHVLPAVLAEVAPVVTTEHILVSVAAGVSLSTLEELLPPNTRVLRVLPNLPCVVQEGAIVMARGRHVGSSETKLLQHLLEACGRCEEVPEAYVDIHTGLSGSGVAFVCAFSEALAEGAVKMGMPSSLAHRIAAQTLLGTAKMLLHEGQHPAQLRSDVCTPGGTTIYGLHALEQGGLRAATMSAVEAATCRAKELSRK
UniProt Q96I23: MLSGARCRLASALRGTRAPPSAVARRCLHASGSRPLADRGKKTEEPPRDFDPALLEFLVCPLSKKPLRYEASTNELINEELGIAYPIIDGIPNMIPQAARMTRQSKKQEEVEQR
UniProt Q9P0K7: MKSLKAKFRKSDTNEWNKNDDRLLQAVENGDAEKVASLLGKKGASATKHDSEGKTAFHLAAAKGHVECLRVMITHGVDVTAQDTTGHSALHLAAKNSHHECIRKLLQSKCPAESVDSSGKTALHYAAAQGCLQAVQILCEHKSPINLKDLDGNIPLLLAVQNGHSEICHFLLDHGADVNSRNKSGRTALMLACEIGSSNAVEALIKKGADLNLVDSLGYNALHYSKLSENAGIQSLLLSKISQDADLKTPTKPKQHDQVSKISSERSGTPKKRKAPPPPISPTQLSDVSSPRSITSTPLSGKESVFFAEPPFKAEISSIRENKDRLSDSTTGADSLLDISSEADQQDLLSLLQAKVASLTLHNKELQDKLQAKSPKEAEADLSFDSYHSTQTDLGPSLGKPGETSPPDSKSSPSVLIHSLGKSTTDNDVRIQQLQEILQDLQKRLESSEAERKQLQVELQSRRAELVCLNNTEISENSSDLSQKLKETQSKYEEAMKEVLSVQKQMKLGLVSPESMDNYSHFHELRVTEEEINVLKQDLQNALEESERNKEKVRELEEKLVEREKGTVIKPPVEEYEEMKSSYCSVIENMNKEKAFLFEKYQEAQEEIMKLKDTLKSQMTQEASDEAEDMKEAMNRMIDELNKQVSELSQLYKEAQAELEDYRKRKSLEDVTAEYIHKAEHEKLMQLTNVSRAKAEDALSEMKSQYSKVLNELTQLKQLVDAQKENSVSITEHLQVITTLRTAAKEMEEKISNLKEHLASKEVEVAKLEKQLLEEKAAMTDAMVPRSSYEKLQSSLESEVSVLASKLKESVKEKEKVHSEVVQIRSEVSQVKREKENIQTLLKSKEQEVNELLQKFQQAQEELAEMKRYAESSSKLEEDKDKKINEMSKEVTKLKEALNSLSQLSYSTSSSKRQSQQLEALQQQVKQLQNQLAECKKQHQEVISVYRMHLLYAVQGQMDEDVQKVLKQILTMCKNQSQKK
UniProt Q9NX57: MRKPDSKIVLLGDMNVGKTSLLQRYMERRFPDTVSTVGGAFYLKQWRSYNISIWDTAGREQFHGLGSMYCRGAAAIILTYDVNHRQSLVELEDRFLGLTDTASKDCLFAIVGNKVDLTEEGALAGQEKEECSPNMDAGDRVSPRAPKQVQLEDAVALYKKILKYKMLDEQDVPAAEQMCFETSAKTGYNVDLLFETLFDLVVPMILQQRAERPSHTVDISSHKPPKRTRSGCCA
UniProt Q99638: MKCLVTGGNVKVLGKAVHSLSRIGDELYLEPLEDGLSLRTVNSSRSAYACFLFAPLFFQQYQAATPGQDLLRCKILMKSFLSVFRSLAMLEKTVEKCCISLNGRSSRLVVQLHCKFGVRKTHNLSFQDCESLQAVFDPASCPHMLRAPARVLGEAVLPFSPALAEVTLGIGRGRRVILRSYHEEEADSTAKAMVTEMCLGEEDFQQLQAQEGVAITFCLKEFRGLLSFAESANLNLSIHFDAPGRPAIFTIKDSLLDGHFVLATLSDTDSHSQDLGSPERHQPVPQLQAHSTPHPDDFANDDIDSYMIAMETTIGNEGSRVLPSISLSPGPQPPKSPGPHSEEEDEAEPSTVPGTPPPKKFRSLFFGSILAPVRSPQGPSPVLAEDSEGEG

[2] = compound: C/C(=N\NC(=O)C1=CC(=CC=C1)S(=O)(=O)N2CCOCC2)/C3=C(C=CC(=C3)Cl)O
Outline: as §1

[3] = compound: C1=CC(=CC=C1C2=NC3=C(N2)C=C(C=C3)C(=O)N)OC4=CC=C(C=C4)Cl
Outline: as §1

[4] = compound: C1=CC2=C(C=CC(=C2)/C=C\3/C(=O)NC(=NCC4=CC=CS4)S3)N=C1
Outline: as §1

[5] = compound: C1=CC2=NC=CN=C2C=C1/C=C/3\C(=O)NC(=O)S3
Outline: as §1

[6] = compound: C1=CC=C(C=C1)C2=NC(=C(N2)C3=CC=NC=C3)C4=CC(=C(C=C4)Cl)O
Outline: as §1

[7] = compound: C1=CC=C2C(=C1)C3=NNC4=CC=CC(=C43)C2=O
Outline: as §1

[8] = compound: C1CCN(C1)C(=O)NC2=CC=CC(=C2)NC3=NC=C(C(=N3)NCCC4=CN=CN4)Br
Outline: as §1

[9] = compound: C1CN(CCC1(CC2=CC=C(C=C2)Cl)N)C3=NC=NC4=C3C=CN4
Outline: as §1

[10] = compound: C1COCCN1CCN2C3=CC=CC=C3N=C2NC(=O)C4=CC(=CC=C4)[N+](=O)[O-] [IRAK-1-4 Inhibitor I]
Outline: as §1

Measured: log2 fold change

RAB8B (UniProt Q92930)
inactive: [1] 0.013 | [2] -0.042 | [3] 0.049 | [4] 0.113 | [5] 0.004 | [6] 0.034 | [7] 0.125 | [8] 0 | [9] -0.006 | [10] 0.035

RALA (UniProt P11233)
inactive: [1] 0.007 | [2] -0.146 | [3] -0.035 | [4] -0.04 | [5] 0.031 | [6] -0.012 | [7] 0.003 | [8] -0.016 | [9] 0.002 | [10] 0.04

RAD51 (UniProt Q06609)
inactive: [1] 0.013 | [2] 0.053 | [3] -0.029 | [4] 0.08 | [5] -0.055 | [6] 0.068 | [7] -0.027 | [8] -0.007 | [9] 0.032 | [10] -0.01

RALY (UniProt Q9UKM9)
inactive: [1] -0.028 | [2] 0.037 | [3] 0.084 | [4] -0.015 | [5] -0.006 | [6] 0.004 | [7] -0.023 | [8] -0.213 | [9] 0.098 | [10] 0.082

RAD23A (UniProt P54725)
inactive: [1] -0.044 | [2] 0.016 | [3] -0.04 | [4] -0.059 | [5] -0.047 | [6] -0.027 | [7] 0.026 | [8] 0.025 | [9] -0.052 | [10] -0.022

RAB10 (UniProt P61026)
inactive: [1] -0.056 | [2] -0.006 | [3] 0.05 | [4] 0.013 | [5] -0.078 | [6] -0.025 | [7] 0.041 | [8] -0.013 | [9] 0.009 | [10] 0.01

2 entries picked at random from the list so far, as already listed:
RAD51 (UniProt Q06609)
inactive: [1] 0.013 | [2] 0.053 | [3] -0.029 | [4] 0.08 | [5] -0.055 | [6] 0.068 | [7] -0.027 | [8] -0.007 | [9] 0.032 | [10] -0.01

RAD23A (UniProt P54725)
inactive: [1] -0.044 | [2] 0.016 | [3] -0.04 | [4] -0.059 | [5] -0.047 | [6] -0.027 | [7] 0.026 | [8] 0.025 | [9] -0.052 | [10] -0.022

(continued)

QSOX2 (UniProt Q6ZRP7)
inactive: [1] -0.016 | [2] -0.015 | [3] -0.019 | [4] 0.025 | [5] 0.042 | [6] -0.026 | [7] -0.064 | [8] -0.034 | [9] 0.014 | [10] 0.023

QRSL1 (UniProt Q9H0R6)
inactive: [1] -0.01 | [2] -0.003 | [3] 0.004 | [4] -0.14 | [5] -0.111 | [6] 0.002 | [7] 0.116 | [8] -0.017 | [9] 0.022 | [10] -0.01

RANBP3 (UniProt Q9H6Z4)
inactive: [1] -0.013 | [2] -0.031 | [3] 0.02 | [4] -0.028 | [5] -0.012 | [6] 0.01 | [7] -0.008 | [8] -0.004 | [9] 0.017 | [10] 0.023

RAPGEF2, A0A2R8YGD3
inactive: [1] -0.009 | [2] 0.16 | [3] 0.038 | [4] 0.042 | [5] -0.083 | [6] -0.047 | [7] 0.053 | [8] 0.007 | [9] -0.085 | [10] 0.007

RAD50 isoform 2 (UniProt Q92878)
inactive: [1] -0.009 | [2] -0.007 | [3] 0.019 | [4] 0.006 | [5] -0.014 | [6] -0.023 | [7] -0.039 | [8] 0.005 | [9] -0.01 | [10] -0.054

RAD51B (UniProt O15315)
inactive: [1] 0.054 | [2] -0.191 | [3] -0.005 | [4] 0.089 | [5] 0.176 | [6] -0.079 | [7] 0.054 | [8] 0.014 | [9] 0.11 | [10] -0.004

R3HDM1 isoform 3 (UniProt Q15032)
inactive: [1] -0.06 | [2] -0.061 | [3] 0.1 | [4] -0.017 | [5] 0.066 | [6] -0.003 | [7] -0.033 | [8] 0.01 | [9] 0.028 | [10] 0.026

RAB24 (UniProt Q969Q5)
inactive: [1] -0.02 | [2] -0.044 | [3] 0.051 | [4] -0.033 | [5] 0.029 | [6] 0.015 | [7] -0.006 | [8] -0.03 | [9] 0.017 | [10] -0.025

RALGAPB (UniProt Q86X10)
inactive: [1] 0.024 | [2] -0.047 | [3] 0.051 | [4] 0.018 | [5] 0 | [6] -0.038 | [7] -0.074 | [8] -0.008 | [9] 0.049 | [10] 0.033

RALBP1 (UniProt Q15311)
inactive: [1] 0 | [2] -0.035 | [3] 0.002 | [4] 0.036 | [5] -0.027 | [6] 0.039 | [7] 0 | [8] -0.073 | [9] -0.03 | [10] -0.015

RANBP1 (UniProt P43487)
inactive: [1] -0.004 | [2] -0.02 | [3] -0.012 | [4] -0.026 | [5] 0.014 | [6] 0.009 | [7] 0.031 | [8] 0.021 | [9] 0.004 | [10] -0.002

PYCR3 (UniProt Q53H96)
inactive: [1] 0 | [2] -0.003 | [3] -0.022 | [4] -0.069 | [5] 0.058 | [6] -0.003 | [7] 0 | [8] 0.037 | [9] -0.009 | [10] -0.016

RANBP9 (UniProt Q96S59)
inactive: [1] 0.01 | [2] -0.017 | [3] 0.019 | [4] 0.023 | [5] -0.007 | [6] 0.002 | [7] -0.009 | [8] -0.007 | [9] -0.005 | [10] 0

PYURF (UniProt Q96I23)
inactive: [1] -0.019 | [2] 0.113 | [3] 0.117 | [4] 0.056 | [5] 0.087 | [6] -0.09 | [7] -0.108 | [8] 0.035 | [9] 0.07 | [10] -0.086

RALGPS2 (UniProt Q86X27)
inactive: [1] 0.107 | [2] -0.041 | [3] 0.022 | [4] -0.083 | [5] -0.026 | [6] -0.055 | [7] -0.04 | [8] -0.031 | [9] 0.06 | [10] 0.003

PYGB (UniProt P11216)
inactive: [1] -0.002 | [2] 0.021 | [3] -0.01 | [4] 0.023 | [5] -0.008 | [6] -0.03 | [7] 0.008 | [8] 0.031 | [9] -0.016 | [10] -0.021

RAB1B (UniProt Q9H0U4)
inactive: [1] -0.009 | [2] -0.005 | [3] 0.011 | [4] 0.019 | [5] -0.002 | [6] 0.005 | [7] -0.008 | [8] 0.014 | [9] 0.003 | [10] 0.055

RAC2 (UniProt P15153)
inactive: [1] 0.009 | [2] 0.018 | [3] 0.014 | [4] -0.035 | [5] -0.01 | [6] 0.012 | [7] 0.034 | [8] 0.069 | [9] -0.036 | [10] 0.024

RAI14 isoform 2 (UniProt Q9P0K7)
inactive: [1] 0.015 | [2] 0.006 | [3] -0.007 | [4] 0.004 | [5] 0.001 | [6] 0.021 | [7] 0.02 | [8] 0 | [9] -0.018 | [10] -0.028

PYCR2 (UniProt Q96C36)
inactive: [1] -0.013 | [2] 0.014 | [3] 0.011 | [4] -0.005 | [5] -0.013 | [6] 0.003 | [7] -0.04 | [8] 0.007 | [9] 0.01 | [10] 0.031

RAB20 (UniProt Q9NX57)
inactive: [1] 0.059 | [2] -0.122 | [3] 0.045 | [4] 0.162 | [5] 0.072 | [6] -0.003 | [7] -0.01 | [8] -0.191 | [9] 0.048 | [10] 0.076

RAD9A (UniProt Q99638)
inactive: [1] -0.004 | [2] -0.065 | [3] -0.018 | [4] 0.026 | [5] 0.011 | [6] 0.017 | [7] -0.025 | [8] 0.034 | [9] 0.035 | [10] -0.012

RAB3GAP2 (UniProt Q9H2M9)
inactive: [1] 0.03 | [2] 0.01 | [3] -0.033 | [4] 0.013 | [5] -0.004 | [6] 0.008 | [7] 0.001 | [8] -0.02 | [9] 0.003 | [10] -0.037

RAB21 (UniProt Q9UL25)
inactive: [1] 0 | [2] -0.008 | [3] 0.015 | [4] 0.02 | [5] 0.02 | [6] -0.028 | [7] -0.034 | [8] 0.026 | [9] 0.012 | [10] 0.045
